Tested on: hepatic low density lipoprotein receptor (LDLR) protein
Experiment: Study 2: hepatic LDLR levels by Western blot
Assay type: in vivo, Mesocricetus auratus
Conditions: Study 2, Western blot; 316P 10 mg/kg, atorvastatin 2×20 mg/kg

## CC(C)c1c(C(=O)Nc2ccccc2)c(-c2ccccc2)c(-c2ccc(F)cc2)n1CC[C@@H](O)C[C@@H](O)CC(=O)O [atorvastatin]
  level of hepatic LDLR expression compared with the PBS control groups: 89%
  level of hepatic LDLR protein versus PBS control: 0.89 fold

Source: patent US20140065649A1, “TEST SYSTEMS AND METHODS FOR IDENTIFYING AND CHARACTERISING LIPID LOWERING DRUGS” (Sanofi, priority 2011, published 2014)
